According to the supplement of paper PMC6411743:
± gives the standard deviation of the averaged measurements. Only a part is listed here, and it is no random draw.

Amino acid sequences for entries named in this document (tags omitted). A change or cut given only in a name is not applied to a line headed by its entry.
UniProt Q7Z6M4: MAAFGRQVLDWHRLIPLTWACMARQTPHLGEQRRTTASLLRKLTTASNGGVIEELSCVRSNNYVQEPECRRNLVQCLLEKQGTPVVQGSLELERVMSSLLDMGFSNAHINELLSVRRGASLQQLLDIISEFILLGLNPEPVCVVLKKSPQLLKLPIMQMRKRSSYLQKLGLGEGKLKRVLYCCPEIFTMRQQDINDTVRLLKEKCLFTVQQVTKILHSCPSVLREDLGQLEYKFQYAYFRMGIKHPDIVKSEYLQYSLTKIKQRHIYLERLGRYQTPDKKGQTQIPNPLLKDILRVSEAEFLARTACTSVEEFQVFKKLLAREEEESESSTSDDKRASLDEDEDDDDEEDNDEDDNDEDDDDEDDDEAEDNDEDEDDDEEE
UniProt Q9P289: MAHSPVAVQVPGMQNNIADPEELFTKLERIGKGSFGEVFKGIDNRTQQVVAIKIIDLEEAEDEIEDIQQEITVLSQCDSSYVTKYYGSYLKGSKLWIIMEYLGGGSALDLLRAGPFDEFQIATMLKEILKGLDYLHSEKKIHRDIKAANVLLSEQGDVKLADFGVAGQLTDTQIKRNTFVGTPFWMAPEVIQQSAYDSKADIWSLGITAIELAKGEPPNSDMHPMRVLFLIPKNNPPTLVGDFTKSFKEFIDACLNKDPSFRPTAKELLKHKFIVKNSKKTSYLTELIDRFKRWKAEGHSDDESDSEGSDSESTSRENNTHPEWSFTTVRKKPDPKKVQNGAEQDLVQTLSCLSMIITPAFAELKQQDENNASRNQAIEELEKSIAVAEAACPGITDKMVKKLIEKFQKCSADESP
UniProt A5YKK6, whole entry: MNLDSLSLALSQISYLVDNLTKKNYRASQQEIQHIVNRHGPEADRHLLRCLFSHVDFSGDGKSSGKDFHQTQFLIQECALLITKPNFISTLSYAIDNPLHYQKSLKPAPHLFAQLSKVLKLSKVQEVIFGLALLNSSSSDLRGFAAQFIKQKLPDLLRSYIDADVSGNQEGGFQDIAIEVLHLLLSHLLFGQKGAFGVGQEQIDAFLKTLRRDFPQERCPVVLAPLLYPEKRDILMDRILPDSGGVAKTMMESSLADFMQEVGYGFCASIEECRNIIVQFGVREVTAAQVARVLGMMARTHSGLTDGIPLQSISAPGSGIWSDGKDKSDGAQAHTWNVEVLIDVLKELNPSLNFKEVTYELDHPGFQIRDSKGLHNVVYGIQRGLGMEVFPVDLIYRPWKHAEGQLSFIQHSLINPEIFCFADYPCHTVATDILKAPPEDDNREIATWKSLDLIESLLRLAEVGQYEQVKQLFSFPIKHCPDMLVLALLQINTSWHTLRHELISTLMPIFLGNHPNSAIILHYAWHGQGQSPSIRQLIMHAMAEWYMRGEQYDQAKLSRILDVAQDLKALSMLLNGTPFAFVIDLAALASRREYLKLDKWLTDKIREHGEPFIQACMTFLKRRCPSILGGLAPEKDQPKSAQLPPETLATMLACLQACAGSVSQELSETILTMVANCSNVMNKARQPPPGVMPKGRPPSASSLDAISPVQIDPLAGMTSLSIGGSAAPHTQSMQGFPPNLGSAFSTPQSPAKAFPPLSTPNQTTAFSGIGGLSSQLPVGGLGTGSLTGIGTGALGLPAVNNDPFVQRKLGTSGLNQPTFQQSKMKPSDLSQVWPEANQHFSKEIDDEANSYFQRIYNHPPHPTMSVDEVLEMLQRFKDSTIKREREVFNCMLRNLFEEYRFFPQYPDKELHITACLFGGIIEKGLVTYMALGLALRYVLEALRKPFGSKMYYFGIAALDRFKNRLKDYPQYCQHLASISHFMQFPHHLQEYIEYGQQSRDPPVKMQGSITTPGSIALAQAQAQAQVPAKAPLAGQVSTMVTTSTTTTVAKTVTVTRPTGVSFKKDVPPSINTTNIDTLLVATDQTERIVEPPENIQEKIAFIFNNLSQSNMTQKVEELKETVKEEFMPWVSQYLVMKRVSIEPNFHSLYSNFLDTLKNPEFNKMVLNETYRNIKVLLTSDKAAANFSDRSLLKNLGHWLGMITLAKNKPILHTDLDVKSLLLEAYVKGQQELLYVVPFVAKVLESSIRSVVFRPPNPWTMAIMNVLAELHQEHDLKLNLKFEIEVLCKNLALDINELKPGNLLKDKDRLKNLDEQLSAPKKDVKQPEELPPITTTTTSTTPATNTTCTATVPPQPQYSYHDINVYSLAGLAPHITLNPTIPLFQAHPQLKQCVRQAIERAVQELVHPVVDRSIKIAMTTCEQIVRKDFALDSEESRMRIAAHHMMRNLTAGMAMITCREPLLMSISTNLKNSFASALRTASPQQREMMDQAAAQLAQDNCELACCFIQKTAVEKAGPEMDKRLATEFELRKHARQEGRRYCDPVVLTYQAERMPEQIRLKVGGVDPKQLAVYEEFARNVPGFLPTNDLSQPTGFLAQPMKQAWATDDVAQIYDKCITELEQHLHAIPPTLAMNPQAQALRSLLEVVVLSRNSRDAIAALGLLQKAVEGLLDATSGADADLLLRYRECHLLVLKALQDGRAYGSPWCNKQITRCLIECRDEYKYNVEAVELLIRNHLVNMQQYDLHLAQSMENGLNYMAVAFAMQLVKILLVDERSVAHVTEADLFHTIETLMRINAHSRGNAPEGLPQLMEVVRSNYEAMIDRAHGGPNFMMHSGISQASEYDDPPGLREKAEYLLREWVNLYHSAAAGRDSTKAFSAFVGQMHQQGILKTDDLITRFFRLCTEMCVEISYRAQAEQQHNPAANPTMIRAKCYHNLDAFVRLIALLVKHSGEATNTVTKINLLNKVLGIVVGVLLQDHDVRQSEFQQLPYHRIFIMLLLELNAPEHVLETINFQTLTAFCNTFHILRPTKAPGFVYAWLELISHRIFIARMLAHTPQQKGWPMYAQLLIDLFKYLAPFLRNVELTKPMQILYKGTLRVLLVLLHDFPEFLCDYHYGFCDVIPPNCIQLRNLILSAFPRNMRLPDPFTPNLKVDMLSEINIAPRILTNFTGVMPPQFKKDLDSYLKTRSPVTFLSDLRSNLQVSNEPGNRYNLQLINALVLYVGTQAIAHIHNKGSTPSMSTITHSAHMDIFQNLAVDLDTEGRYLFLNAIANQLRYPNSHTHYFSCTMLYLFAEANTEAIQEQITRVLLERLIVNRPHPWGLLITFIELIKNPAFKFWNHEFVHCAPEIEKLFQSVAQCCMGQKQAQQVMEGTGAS
UniProt Q96SY0, whole entry: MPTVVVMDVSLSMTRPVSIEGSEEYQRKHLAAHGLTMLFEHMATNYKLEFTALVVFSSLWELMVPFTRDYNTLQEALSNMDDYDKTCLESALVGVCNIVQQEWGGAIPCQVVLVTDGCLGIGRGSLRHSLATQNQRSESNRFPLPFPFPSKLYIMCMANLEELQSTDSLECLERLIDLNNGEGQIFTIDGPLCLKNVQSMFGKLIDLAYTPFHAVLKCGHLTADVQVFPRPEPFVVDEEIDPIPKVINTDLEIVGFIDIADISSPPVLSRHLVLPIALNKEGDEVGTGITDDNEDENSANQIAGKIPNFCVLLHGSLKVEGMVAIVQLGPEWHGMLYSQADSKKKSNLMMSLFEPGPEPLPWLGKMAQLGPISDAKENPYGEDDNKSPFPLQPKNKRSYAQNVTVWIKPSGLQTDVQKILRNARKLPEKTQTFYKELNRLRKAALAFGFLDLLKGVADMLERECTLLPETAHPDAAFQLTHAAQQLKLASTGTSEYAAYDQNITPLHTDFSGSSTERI
UniProt P14406, whole entry: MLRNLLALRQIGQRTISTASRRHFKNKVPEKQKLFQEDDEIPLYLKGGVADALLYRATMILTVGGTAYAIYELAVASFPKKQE
UniProt Q92925, whole entry: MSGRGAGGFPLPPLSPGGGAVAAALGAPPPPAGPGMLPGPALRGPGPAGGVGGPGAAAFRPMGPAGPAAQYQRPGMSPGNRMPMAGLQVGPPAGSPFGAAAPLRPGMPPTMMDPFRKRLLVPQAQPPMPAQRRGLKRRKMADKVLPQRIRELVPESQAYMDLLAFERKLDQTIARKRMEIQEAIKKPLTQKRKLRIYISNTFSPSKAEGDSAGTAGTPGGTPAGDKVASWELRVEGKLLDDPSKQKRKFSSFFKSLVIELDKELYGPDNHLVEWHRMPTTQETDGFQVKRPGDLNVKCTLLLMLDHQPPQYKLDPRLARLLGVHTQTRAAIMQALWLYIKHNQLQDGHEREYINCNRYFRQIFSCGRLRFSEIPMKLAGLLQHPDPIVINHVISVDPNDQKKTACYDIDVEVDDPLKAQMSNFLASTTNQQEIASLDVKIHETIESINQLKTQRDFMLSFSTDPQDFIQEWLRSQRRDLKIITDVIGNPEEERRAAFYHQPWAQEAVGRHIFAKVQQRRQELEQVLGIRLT
UniProt A2VDJ0: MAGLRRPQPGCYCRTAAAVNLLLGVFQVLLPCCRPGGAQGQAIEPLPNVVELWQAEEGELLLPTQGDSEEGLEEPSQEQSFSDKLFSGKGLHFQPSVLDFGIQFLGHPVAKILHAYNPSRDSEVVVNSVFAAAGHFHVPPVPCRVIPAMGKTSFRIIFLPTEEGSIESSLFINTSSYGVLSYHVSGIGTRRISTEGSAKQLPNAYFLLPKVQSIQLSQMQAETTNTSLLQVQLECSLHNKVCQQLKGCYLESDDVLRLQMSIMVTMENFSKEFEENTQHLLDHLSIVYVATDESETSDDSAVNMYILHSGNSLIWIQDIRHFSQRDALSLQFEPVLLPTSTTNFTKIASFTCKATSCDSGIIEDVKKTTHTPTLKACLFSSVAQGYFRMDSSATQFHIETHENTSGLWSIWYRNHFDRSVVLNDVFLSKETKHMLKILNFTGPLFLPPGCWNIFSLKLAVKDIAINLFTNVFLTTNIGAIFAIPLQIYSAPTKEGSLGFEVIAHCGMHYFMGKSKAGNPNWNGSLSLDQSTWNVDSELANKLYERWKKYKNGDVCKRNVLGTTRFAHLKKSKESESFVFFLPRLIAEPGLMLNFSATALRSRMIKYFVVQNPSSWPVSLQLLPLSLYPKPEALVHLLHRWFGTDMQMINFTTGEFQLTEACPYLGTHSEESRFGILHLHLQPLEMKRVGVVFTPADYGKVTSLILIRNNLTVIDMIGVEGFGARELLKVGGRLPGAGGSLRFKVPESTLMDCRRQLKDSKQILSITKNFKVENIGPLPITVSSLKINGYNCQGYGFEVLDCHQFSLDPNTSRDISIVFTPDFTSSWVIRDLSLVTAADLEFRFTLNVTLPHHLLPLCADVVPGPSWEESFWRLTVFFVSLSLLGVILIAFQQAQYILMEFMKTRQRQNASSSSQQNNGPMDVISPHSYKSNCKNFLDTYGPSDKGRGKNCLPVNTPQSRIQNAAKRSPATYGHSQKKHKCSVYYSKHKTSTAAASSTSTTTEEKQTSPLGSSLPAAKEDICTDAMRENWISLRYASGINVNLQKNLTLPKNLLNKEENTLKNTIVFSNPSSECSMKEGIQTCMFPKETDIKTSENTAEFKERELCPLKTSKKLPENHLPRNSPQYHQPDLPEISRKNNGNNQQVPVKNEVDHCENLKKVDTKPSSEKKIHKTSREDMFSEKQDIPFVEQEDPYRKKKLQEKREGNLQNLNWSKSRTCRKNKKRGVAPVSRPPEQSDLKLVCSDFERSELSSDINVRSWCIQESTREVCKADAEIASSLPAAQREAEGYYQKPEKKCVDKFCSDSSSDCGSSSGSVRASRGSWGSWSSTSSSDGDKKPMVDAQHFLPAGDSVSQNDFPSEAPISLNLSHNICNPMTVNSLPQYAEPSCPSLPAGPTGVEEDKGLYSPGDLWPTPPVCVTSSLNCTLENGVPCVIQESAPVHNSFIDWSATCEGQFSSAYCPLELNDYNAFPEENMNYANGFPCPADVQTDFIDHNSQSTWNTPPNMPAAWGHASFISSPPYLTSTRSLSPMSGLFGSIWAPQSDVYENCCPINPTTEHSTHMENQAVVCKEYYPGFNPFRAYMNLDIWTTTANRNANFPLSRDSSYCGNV
UniProt Q9Y5N5: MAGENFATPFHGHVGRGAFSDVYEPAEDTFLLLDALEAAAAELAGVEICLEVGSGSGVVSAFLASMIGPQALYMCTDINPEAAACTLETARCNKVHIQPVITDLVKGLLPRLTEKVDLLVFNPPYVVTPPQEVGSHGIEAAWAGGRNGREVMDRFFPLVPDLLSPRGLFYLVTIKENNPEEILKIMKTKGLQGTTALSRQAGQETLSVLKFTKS
UniProt Q9H6X4: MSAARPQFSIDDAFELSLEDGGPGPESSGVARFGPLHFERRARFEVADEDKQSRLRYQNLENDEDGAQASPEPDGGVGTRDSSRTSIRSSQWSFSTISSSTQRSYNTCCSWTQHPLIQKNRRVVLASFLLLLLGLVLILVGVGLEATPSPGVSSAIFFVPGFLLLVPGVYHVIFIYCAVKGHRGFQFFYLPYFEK

Compound: Nc1ncnc2c1ncn2[C@@H]1O[C@H](COP(=O)(O)OP(=O)(O)OP(=O)(O)O)[C@@H](O)[C@H]1O [adenosine triphosphate]
Test: NP40-soluble protein abundance relative to vehicle (solubility fold change) (ratio); higher = more soluble protein in presence of ATP
How it was run: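 Across three independent experiments, values are fold changes against the detergent-processed vehicle for each replicate, based on vsn-normalised intensities. The samples were Jurkat crude lysate treated with eight concentrations (0.1 to 10 mM) for 10 min at room temperature and then 3 min at 37 °C. Lysate was solubilised with 0.8% NP40 and benzonase, ultracentrifuged, and the supernatant analysed by TMT-labelled LC-MS/MS.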

Target	NP40-soluble protein abundance (concentration: 1mM)	NP40-soluble protein abundance (concentration: 2mM)	NP40-soluble protein abundance (concentration: 4mM)	NP40-soluble protein abundance (concentration: 6mM)	NP40-soluble protein abundance (concentration: 8mM)	NP40-soluble protein abundance (concentration: 10mM)
B4DKD5 and related entries (UniProt Q7Z6M4)	0.89 ± 0.0077	0.995 ± 0.046	0.994 ± 0.022	1 ± 0.077	0.957 ± 0.087	1.014 ± 0.0019
B4E0Y9 and related entries (UniProt Q9P289)	0.977 ± 0.024	0.9924 ± 0.0082	0.963 ± 0.025	1.002 ± 0.0083	0.956 ± 0.029	0.964 ± 0.046
UniProt A5YKK6 and related entries	1.21 ± 0.017	1.21 ± 0.037	1.26 ± 0.049	1.27 ± 0.078	1.35 ± 0.085	1.34 ± 0.087
FAM171A2 (UniProt A8MVW0)	0.924 ± 0.049	0.948 ± 0.018	0.973 ± 0.09	0.887 ± 0.064	0.89 ± 0.011	0.892 ± 0.03
B4DJL6 and related entries (UniProt Q96SY0)	0.984 ± 0.052	1 ± 0.024	1.005 ± 0.01	0.991 ± 0.082	1.01 ± 0.015	1.07 ± 0.038
D6RGV5 and related entries (UniProt P14406)	0.947 ± 0.062	0.926 ± 0.098	0.95 ± 0.051	0.911 ± 0.048	0.928 ± 0.044	0.819 ± 0.15
B9EGA3 and related entries (UniProt Q92925)	1.02 ± 0.011	1.02 ± 0.016	1.04 ± 0.057	1 ± 0.049	1.09 ± 0.065	1.04 ± 0.033
UniProt B7ZLF3	1.02 ± 0.059	1.02 ± 0.074	1.12 ± 0.042	1.08 ± 0.047	1.09 ± 0.08	1.1 ± 0.069
UniProt A2VDJ0 and related entries	1.03 ± 0.06	1.1 ± 0.16	1.04 ± 0.028	1.03 ± 0.092	1.15 ± 0.28	1.09 ± 0.16
D4Q8H0 and related entries (UniProt Q9NYL2+D4Q8H0)	0.978 ± 0.022	1.03 ± 0.046	1.03 ± 0.014	0.929 ± 0.021	0.995 ± 0.076	1.09 ± 0.028
B7WPE2 and related entries (UniProt Q32P44)	1.114 ± 0.0064	1.1 ± 0.016	1.1 ± 0.033	1.08 ± 0.054	1.11 ± 0.043	1.1 ± 0.023
UniProt A6NHR9 and related entries	1.04 ± 0.068	1.04 ± 0.068	1.04 ± 0.05	1.02 ± 0.082	1.09 ± 0.042	1.08 ± 0.066
B2RA97 and related entries (UniProt Q9Y5N5)	0.958 ± 0.081	0.958 ± 0.06	0.972 ± 0.05	0.938 ± 0.1	0.884 ± 0.059	0.947 ± 0.039
B4E0E3 and related entries (UniProt Q9H6X4)	0.893 ± 0.082	0.931 ± 0.068	0.898 ± 0.044	0.961 ± 0.018	0.888 ± 0.047	0.851 ± 0.078
B4DR61 and related entries (UniProt P61619)	1.05 ± 0.2	1.05 ± 0.14	1 ± 0.1	0.937 ± 0.17	1.03 ± 0.097	1.07 ± 0.067

Only NP40-soluble protein abundance (concentration: 2mM) (2 entries from above):
Target	NP40-soluble protein abundance (concentration: 2mM)
UniProt A5YKK6 and related entries	1.21 ± 0.037
B7WPE2 and related entries (UniProt Q32P44)	1.1 ± 0.016
